Data from the supplement of paper PMC8256030.
“And” between values parts separate entries of the source, which are not always exact repeats. Identical values can stand only once. Some of the results follow. Single values are uncertain here, since repeats match poorly.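 HEK293T cells were given each compound shortly before transfection with a reporter in which red mCherry is followed by the SARS-CoV-2 frameshift element and then GFP in the −1 frame, so GFP appears only after frameshifting.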

Tested on: HEK293T
Assay: percent viability (nuclei count) relative to control; higher = more viable cells
Conditions: 10 µM; 24 h

Row | SMILES | percent viability
1 | Oc1c(I)cc(I)c2cccnc12 | 144%
2 | CCOC(=O)O[C@]1(C(=O)OCCl)CC[C@H]2[C@@H]3CCC4=CC(=O)C=C[C@]4(C)[C@H]3[C@@H](O)C[C@@]21C [Loteprednol] | 249%
3 | Cc1cc(O)c(Cl)c(C)c1Cl [dichloroxylenol] | 155%
4 | COc1ccc(C(=O)N2CCN(c3ccc4c(c3)CCC(=O)N4)CC2)cc1OC [vesnarinone] | 235%
5 | CC(=O)NCC(=O)O [aceturate] | 157%
6 | COc1ccc(CC2c3cc(OC)c(OC)cc3CC[N+]2(C)CCC(=O)OCCCCCOC(=O)CC[N+]2(C)CCc3cc(OC)c(OC)cc3C2Cc2ccc(OC)c(OC)c2)cc1OC (stereo not given) [atracurium besilate] | 219% and 346%
7 | CN(C)CCOC(C)(c1ccccc1)c1ccc(Cl)cc1 (stereo not given) [chlorphenoxamine] | 277%
8 | CCN(CC)CCS(=O)(=O)[C@@H]1CCN2C(=O)c3coc(n3)CC(=O)C[C@H](O)/C=C(C)/C=C/CNC(=O)/C=C/[C@@H](C)[C@@H](C(C)C)OC(=O)[C@@H]12 [dalfopristin] | 145%
9 | COc1nc2ccc(Br)cc2cc1[C@@H](c1ccccc1)[C@@](O)(CCN(C)C)c1cccc2ccccc12 [Bedaquiline] | 203%
10 | COc1cc(C(=S)N2CCOCC2)ccc1O [vanitiolide] | 137%
11 | O=P(O)(O)C(O)(Cn1ccnc1)P(=O)(O)O [Zoledronic acid] | 199%
12 | O=C(O)c1ccccc1Nc1cccc(C(F)(F)F)c1 [flufenamic acid] | 178% and 267%
13 | CN1CC[C@H](c2c(O)cc(O)c3c(=O)cc(-c4ccccc4Cl)oc23)[C@H](O)C1 [alvocidib] | 14.7%
14 | CN1CCN(c2c(F)cc3c(=O)c(C(=O)O)cn(CCF)c3c2F)CC1 [fleroxacin] | 272%
15 | O=C([O-])CN(CCN(CC(=O)[O-])CC(=O)[O-])CC(=O)[O-].[Co+2].[Co+2] [Kelocyanor] | 209%
16 | CC1(C)S[C@@H]2[C@H](NC(=O)C3(N)CCCCC3)C(=O)N2[C@H]1C(=O)O [ciclacillin] | 106%
17 | CC1CCCCN1CCCOC(=O)c1ccccc1 (stereo not given) [piperocaine] | 140%
18 | CCCCNC(=O)NS(=O)(=O)c1ccc(C)cc1 [Tolbutamide] | 270%
19 | C[C@@H]1C/C=C/C=C/C=C/C=C/[C@H](O[C@@H]2O[C@H](C)[C@@H](O)[C@H](N)[C@@H]2O)C[C@@H]2O[C@](O)(C[C@@H](O)C[C@H]3O[C@@H]3/C=C/C(=O)O1)C[C@H](O)[C@H]2C(=O)O | 188%
20 | N=C(N/N=C/c1ccc(Cl)cc1)N/N=C/c1ccc(Cl)cc1 [robenidine] | 151%

Row | SMILES | percent viability
21 | CN1CCCN=C1/C=C/c1cccc(O)c1 | 174%
22 | Cc1ncc(C[n+]2csc(CCOP(=O)(O)O)c2C)c(N)n1 [monophosphothiamine] | 260%
23 | Cc1nccn1CC1CCc2c(c3ccccc3n2C)C1=O (stereo not given) | 168%
24 | CN1CCC(=C2c3ccccc3CCc3cccnc32)CC1 [azatadine] | 263%
25 | CN1CCC[C@@H]1Cc1c[nH]c2ccc(CCS(=O)(=O)c3ccccc3)cc12 | 97%
26 | O=P(O)(O)OC(Cn1cncn1)(Cn1cncn1)c1ccc(F)cc1F [fosfluconazole] | 182%
27 | COc1ccc(C(=O)Nc2c(Cl)cncc2Cl)cc1OC1CCCC1 [piclamilast] | 92.7%
28 | CCCCC1C(=O)N(c2ccccc2)N(c2ccc(O)cc2)C1=O (stereo not given) [oxyphenbutazone] | 91.6%
29 | CSc1ccc(C(=O)c2[nH]c(=O)[nH]c2C)cc1 [enoximone] | 216%
30 | CC(=O)[C@@]1(O)CC[C@H]2[C@@H]3CCC4=CC(=O)C=C[C@]4(C)[C@H]3[C@@H](O)C[C@@]21C [deprodone] | 193%
31 | CC(=O)N(CC(O)CN(C(C)=O)c1c(I)c(C(=O)NCC(O)CO)c(I)c(C(=O)NCC(O)CO)c1I)c1c(I)c(C(=O)NCC(O)CO)c(I)c(C(=O)NCC(O)CO)c1I (stereo not given) [iodixanol] | 111%
32 | CCc1cc(C(N)=S)ccn1 [ethionamide] | 110%
33 | OC1(c2ccc(Cl)c(C(F)(F)F)c2)CCN(CCCC(c2ccc(F)cc2)c2ccc(F)cc2)CC1 [penfluridol] | 219%
34 | CN[C@@H]1CCc2[nH]c3ccc(C(N)=O)cc3c2C1 [frovatriptan] | 235%
35 | O=C(O)COc1ccccc1/C=N/NC(=O)c1ccncc1 [aconiazide] | 27.1%
36 | O=C(O)/C=C/C(=O)O | 181%
37 | CCCSS/C(CCO)=C(/C)N(C=O)Cc1cnc(C)nc1N [prosultiamine] | 206%
38 | CCCC(=O)O[C@]1(C(=O)COC(C)=O)CC[C@H]2[C@@H]3C[C@H](F)C4=CC(=O)C=C[C@]4(C)[C@@]3(F)[C@@H](O)C[C@@]21C [difluprednate] | 285%
39 | C=CCCCCCCCCC(=O)O | 398%
40 | C[C@](N)(Cc1ccc(O)c(O)c1)C(=O)O [Methyldopa] | 203%
